Results are given in words; binding and its absence hold for the method and conditions named. Some entries that bind do so weakly or less than the wild type.
Target: T1, Shigella flexneri SctT (Spa29) (Shigella flexneri) (UniProt P0A1M6)
T1 sequence: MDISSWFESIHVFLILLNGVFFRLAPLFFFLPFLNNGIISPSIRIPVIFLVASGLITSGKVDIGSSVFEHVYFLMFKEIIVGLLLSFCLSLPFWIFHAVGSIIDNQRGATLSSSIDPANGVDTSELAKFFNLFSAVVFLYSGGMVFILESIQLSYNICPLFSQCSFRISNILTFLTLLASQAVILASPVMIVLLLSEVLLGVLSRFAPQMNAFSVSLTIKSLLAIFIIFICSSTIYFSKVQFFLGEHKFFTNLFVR
Experiment: cryo-EM structure; SctRST co-expressed from the operon in E. coli, complex purified by the Dual-Strep tag on SctT and SEC; 0.01% LMNG in TBS (100 mM Tris, 150 mM NaCl, 1 mM EDTA, pH 8), 8.4 mg/ml; single-particle reconstruction at 3.5 Å, with further 3D classification of the particle set; both purified

The chains behind the UniProt entries cited, without tags or fusion partners.
UniProt P0A1L3: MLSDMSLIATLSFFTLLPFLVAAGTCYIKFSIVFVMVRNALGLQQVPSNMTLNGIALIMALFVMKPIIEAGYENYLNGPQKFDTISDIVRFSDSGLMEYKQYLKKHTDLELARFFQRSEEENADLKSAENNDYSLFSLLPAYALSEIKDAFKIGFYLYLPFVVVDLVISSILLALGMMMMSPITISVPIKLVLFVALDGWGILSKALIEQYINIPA
UniProt P0A1M4: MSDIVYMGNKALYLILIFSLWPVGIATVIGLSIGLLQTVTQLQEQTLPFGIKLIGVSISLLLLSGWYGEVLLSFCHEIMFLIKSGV

Row | Substance | binding
1 | Shigella flexneri SctR (Spa24) (from UniProt P0A1L3 1-216) | binds
2 | Shigella flexneri SctS (Spa9) (from UniProt P0A1M4 1-86) | binds
